Assay [1] concerns the target RBMP1-Venus-3×FLAG (Rubisco-Binding Membrane Protein 1) (C. reinhardtii). The experiment in a line: affinity purification with mass spectrometry; detergent-based affinity purification of Venus-3×FLAG-tagged bait from C. reinhardtii lysate, performed as in Wang et al., 2023 (membranes dissolved with digitonin); control: Venus alone.
Assay [2] addresses RBMP2-Venus-3×FLAG (Rubisco-Binding Membrane Protein 2) (C. reinhardtii). The description is as above.

These are yes or no findings as the source states them, for the method shown. Binding seen in cells or lysates may run through a third protein. These calls come from enrichment with a bait or labelling near it, and not all partners need be listed. A no says only that the protein was not detected with the bait.

B1: Carbonic AnHydrase 3 (CAH3) (enzyme, UniProt Q39588 1-310)
chain: MRSAVLQRGQARRVSCRVRADGSGVDSLPSTSASSSARPLIDRRQLLTGAAASVITFVGCPCPLCKPGEAKAAAWNYGEVAGPPTWKGVCATGKRQSPINIPLNTSAPKVDAEMGEFDFAYGSFEKCDVLNTGHGTMQVNFPAGNLAFIGNMELELLQFHFHAPSEHAMDGRRYAMEAHLVHKNKSTGNLAVLGIMLEPGGLIKNPALSTALEVAPEVPLAKKPSPKGINPVMLLPKKSKAGTRPFVHYPGSLTTPPCSEGVDWFVFMQPIKVPDSQILDFMRFVGDNKTYATNTRPLQLLNSRLVEYEL
As to B1, the binding entry in assay [1] and in assay [2] was “no binding” in each case.

The values above are taken from PMC11565738.
